Data taken from publication PMC7949049 (The Journal of Biological Chemistry, 2020).
Results are given in words; binding and its absence hold for the method and conditions named. Binding seen in cells or lysates may run through a third protein. Some entries that bind do so weakly or less than the wild type. Where a sequence is shown, tags or fusion partners need not be part of it.

Protein sequences, listed by entry. Tags and fused reporters are not part of them.
UniProt Q96KP1: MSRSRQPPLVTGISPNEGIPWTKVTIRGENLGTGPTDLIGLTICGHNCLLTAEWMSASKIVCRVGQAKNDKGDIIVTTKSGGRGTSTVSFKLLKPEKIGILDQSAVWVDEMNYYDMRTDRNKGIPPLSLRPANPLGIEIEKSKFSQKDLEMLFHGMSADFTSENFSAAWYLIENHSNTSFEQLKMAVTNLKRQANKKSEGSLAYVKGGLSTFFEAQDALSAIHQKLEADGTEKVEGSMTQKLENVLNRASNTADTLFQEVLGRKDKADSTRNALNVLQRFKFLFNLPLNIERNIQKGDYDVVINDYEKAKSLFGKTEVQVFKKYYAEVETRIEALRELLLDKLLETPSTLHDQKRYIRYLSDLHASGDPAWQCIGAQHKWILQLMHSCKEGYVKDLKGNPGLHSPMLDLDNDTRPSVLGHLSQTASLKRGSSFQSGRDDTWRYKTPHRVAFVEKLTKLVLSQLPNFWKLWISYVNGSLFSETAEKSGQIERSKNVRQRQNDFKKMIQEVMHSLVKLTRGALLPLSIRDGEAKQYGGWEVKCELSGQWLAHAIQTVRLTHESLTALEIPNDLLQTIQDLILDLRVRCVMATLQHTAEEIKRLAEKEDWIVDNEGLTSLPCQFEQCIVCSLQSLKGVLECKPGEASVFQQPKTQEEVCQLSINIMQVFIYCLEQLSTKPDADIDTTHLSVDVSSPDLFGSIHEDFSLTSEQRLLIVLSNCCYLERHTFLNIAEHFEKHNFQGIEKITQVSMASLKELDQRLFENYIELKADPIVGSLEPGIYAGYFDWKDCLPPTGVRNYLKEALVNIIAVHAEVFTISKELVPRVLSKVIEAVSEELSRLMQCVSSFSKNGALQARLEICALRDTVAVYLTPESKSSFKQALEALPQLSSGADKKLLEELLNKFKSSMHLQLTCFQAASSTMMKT

Target: T1, V5-tagged, constitutively active (Q72L) RalB (UniProt P11234)
T1 sequence: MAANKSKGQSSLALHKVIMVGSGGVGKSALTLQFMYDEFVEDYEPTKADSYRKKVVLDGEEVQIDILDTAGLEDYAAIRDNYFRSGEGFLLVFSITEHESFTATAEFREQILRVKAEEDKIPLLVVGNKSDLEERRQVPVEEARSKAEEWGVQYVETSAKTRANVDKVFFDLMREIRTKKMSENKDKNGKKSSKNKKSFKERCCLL
Assay: co-IP; HEK293T lysate; V5-RalB Q72L precipitated on anti-V5 Protein G Dynabeads, blots for flag-RLIP76 or endogenous Sec5; 1 h, 4 °C

Substance: endogenous Sec5 (from UniProt Q96KP1 1-924)
- binding: binds
